Source: the supplement of paper PMC8728848
This is one part of the list.

Tests used:
Experiment in all cases: glycan array binding signal (z-score within array); higher = stronger binding
Settings in all cases: glycan notation: IUPAC condensed, linker removed
[1] = molecular target: Neu5Ac(a2-3)Gal(b1-4)GlcNAc
Procedure, shortened: (§1)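 Glycan array binding is given as a within-array Z-score, which can be read as non-binding when negative. The arrays, 3228 of them, came from the Consortium for Functional Glycomics database and were retained only where the protein sequence was available. Z-scores were averaged across arrays of the same protein sequence at different concentrations or buffers and across linkers.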

[2] = molecular target: Neu5Ac(a2-3)Gal(b1-4)GlcNAc(b1-2)Man
Procedure, shortened: as §1

[3] = molecular target: Neu5Ac(a2-3)Gal(b1-4)GlcNAc(b1-2)Man(a1-3)[GlcNAc(b1-4)][Neu5Ac(a2-3)Gal(b1-4)GlcNAc(b1-2)Man(a1-6)]Man(b1-4)GlcNAc(b1-4)GlcNAc
Procedure, shortened: as §1

[4] = molecular target: Neu5Ac(a2-3)Gal(b1-4)GlcNAc(b1-2)Man(a1-3)[Neu5Ac(a2-3)Gal(b1-4)GlcNAc(b1-2)Man(a1-6)]Man(b1-4)GlcNAc(b1-4)GlcNAc
Procedure, shortened: as §1

[5] = molecular target: Neu5Ac(a2-3)Gal(b1-4)GlcNAc(b1-2)Man(a1-3)[Neu5Ac(a2-3)Gal(b1-4)GlcNAc(b1-2)Man(a1-6)]Man(b1-4)GlcNAc(b1-4)[Fuc(a1-6)]GlcNAc
Procedure, shortened: as §1

[6] = molecular target: Neu5Ac(a2-3)Gal(b1-4)GlcNAc(b1-2)Man(a1-3)[Neu5Ac(a2-6)Gal(b1-4)GlcNAc(b1-2)Man(a1-6)]Man(b1-4)GlcNAc(b1-4)GlcNAc
Procedure, shortened: as §1

[7] = molecular target: Neu5Ac(a2-3)Gal(b1-4)GlcNAc(b1-2)[Neu5Ac(a2-3)Gal(b1-4)GlcNAc(b1-4)]Man(a1-3)[GlcNAc(b1-4)][Neu5Ac(a2-3)Gal(b1-4)GlcNAc(b1-2)[Neu5Ac(a2-3)Gal(b1-4)GlcNAc(b1-6)]Man(a1-6)]Man(b1-4)GlcNAc(b1-4)GlcNAc
Procedure, shortened: as §1

[8] = molecular target: Neu5Ac(a2-3)Gal(b1-4)GlcNAc(b1-2)[Neu5Ac(a2-3)Gal(b1-4)GlcNAc(b1-4)]Man(a1-3)[GlcNAc(b1-4)][Neu5Ac(a2-3)Gal(b1-4)GlcNAc(b1-4)Man(a1-6)]Man(b1-4)GlcNAc(b1-4)GlcNAc
Procedure, shortened: as §1

[9] = molecular target: Neu5Ac(a2-3)Gal(b1-4)GlcNAc(b1-2)[Neu5Ac(a2-3)Gal(b1-4)GlcNAc(b1-6)]Man(a1-6)[Neu5Ac(a2-3)Gal(b1-4)GlcNAc(b1-2)Man(a1-3)]Man(b1-4)GlcNAc(b1-4)GlcNAc
Procedure, shortened: as §1

[10] = molecular target: Neu5Ac(a2-3)Gal(b1-4)GlcNAc(b1-2)[Neu5Ac(a2-3)Gal(b1-4)GlcNAc(b1-6)]Man(a1-6)[Neu5Ac(a2-3)Gal(b1-4)GlcNAc(b1-2)Man(a1-3)][GlcNAc(b1-4)]Man(b1-4)GlcNAc(b1-4)GlcNAc
Procedure, shortened: as §1

[11] = molecular target: Neu5Ac(a2-3)Gal(b1-4)GlcNAc(b1-3)Gal
Procedure, shortened: as §1

[12] = molecular target: Neu5Ac(a2-3)Gal(b1-4)GlcNAc(b1-3)Gal(b1-3)GlcNAc
Procedure, shortened: as §1

[13] = molecular target: Neu5Ac(a2-3)Gal(b1-4)GlcNAc(b1-3)Gal(b1-4)GlcNAc
Procedure, shortened: as §1

[14] = molecular target: Neu5Ac(a2-3)Gal(b1-4)GlcNAc(b1-3)Gal(b1-4)GlcNAc(b1-2)Man(a1-3)[Neu5Ac(a2-3)Gal(b1-4)GlcNAc(b1-3)Gal(b1-4)GlcNAc(b1-2)Man(a1-6)]Man(b1-4)GlcNAc(b1-4)GlcNAc
Procedure, shortened: as §1

[15] = molecular target: Neu5Ac(a2-3)Gal(b1-4)GlcNAc(b1-3)Gal(b1-4)GlcNAc(b1-3)Gal(b1-4)GlcNAc
Procedure, shortened: as §1

[16] = molecular target: Neu5Ac(a2-3)Gal(b1-4)GlcNAc(b1-3)Gal(b1-4)GlcNAc(b1-3)Gal(b1-4)GlcNAc(b1-2)Man(a1-3)[Neu5Ac(a2-3)Gal(b1-4)GlcNAc(b1-3)Gal(b1-4)GlcNAc(b1-3)Gal(b1-4)GlcNAc(b1-2)Man(a1-6)]GalNAc
Procedure, shortened: as §1

[17] = molecular target: Neu5Ac(a2-3)Gal(b1-4)GlcNAc(b1-3)Gal(b1-4)GlcNAc(b1-3)GalNAc
Procedure, shortened: as §1

[18] = molecular target: Neu5Ac(a2-3)Gal(b1-4)GlcNAc(b1-3)Gal(b1-4)GlcNAc(b1-3)[Neu5Ac(a2-3)Gal(b1-4)GlcNAc(b1-3)Gal(b1-4)GlcNAc(b1-6)]GalNAc
Procedure, shortened: as §1

[19] = molecular target: Neu5Ac(a2-3)Gal(b1-4)GlcNAc(b1-3)Gal(b1-4)GlcNAc(b1-6)[Gal(b1-3)]GalNAc
Procedure, shortened: as §1

[20] = molecular target: Neu5Ac(a2-3)Gal(b1-4)GlcNAc(b1-3)Gal(b1-4)[Fuc(a1-3)]GlcNAc
Procedure, shortened: as §1

[21] = molecular target: Neu5Ac(a2-3)Gal(b1-4)GlcNAc(b1-3)GalNAc
Procedure, shortened: as §1

[22] = molecular target: Neu5Ac(a2-3)Gal(b1-4)GlcNAc(b1-3)[Neu5Ac(a2-3)Gal(b1-4)GlcNAc(b1-6)]GalNAc
Procedure, shortened: as §1

[23] = molecular target: Neu5Ac(a2-3)Gal(b1-4)GlcNAc(b1-6)GalNAc
Procedure, shortened: as §1

[24] = molecular target: Neu5Ac(a2-3)Gal(b1-4)GlcNAc(b1-6)[Gal(b1-3)]GalNAc
Procedure, shortened: as §1

[25] = molecular target: Neu5Ac(a2-3)Gal(b1-4)GlcNAc(b1-6)[Neu5Ac(a2-3)Gal(b1-3)]GalNAc
Procedure, shortened: as §1

[26] = molecular target: Neu5Ac(a2-3)Gal(b1-4)GlcNAc6S
Procedure, shortened: as §1

[27] = molecular target: Neu5Ac(a2-3)Gal(b1-4)[Fuc(a1-3)]GlcNAc
Procedure, shortened: as §1

[28] = molecular target: Neu5Ac(a2-3)Gal(b1-4)[Fuc(a1-3)]GlcNAc(b1-2)Man
Procedure, shortened: as §1

[29] = molecular target: Neu5Ac(a2-3)Gal(b1-4)[Fuc(a1-3)]GlcNAc(b1-3)Gal
Procedure, shortened: as §1

[30] = molecular target: Neu5Ac(a2-3)Gal(b1-4)[Fuc(a1-3)]GlcNAc(b1-3)Gal(b1-4)GlcNAc
Procedure, shortened: as §1

[31] = molecular target: Neu5Ac(a2-3)Gal(b1-4)[Fuc(a1-3)]GlcNAc(b1-3)Gal(b1-4)[Fuc(a1-3)]GlcNAc(b1-3)Gal(b1-4)[Fuc(a1-3)]GlcNAc
Procedure, shortened: as §1

[32] = molecular target: Neu5Ac(a2-3)Gal(b1-4)[Fuc(a1-3)]GlcNAc(b1-3)GalNAc
Procedure, shortened: as §1

[33] = molecular target: Neu5Ac(a2-3)Gal(b1-4)[Fuc(a1-3)]GlcNAc(b1-6)[Gal(b1-3)]GalNAc
Procedure, shortened: as §1

[34] = molecular target: Neu5Ac(a2-3)Gal(b1-4)[Fuc(a1-3)]GlcNAc(b1-6)[Neu5Ac(a2-3)Gal(b1-3)]GalNAc
Procedure, shortened: as §1

[35] = molecular target: Neu5Ac(a2-3)Gal(b1-4)[Fuc(a1-3)]GlcNAc6S
Procedure, shortened: as §1

[36] = molecular target: Neu5Ac(a2-3)Gal6S(b1-4)GlcNAc
Procedure, shortened: as §1

[37] = molecular target: Neu5Ac(a2-3)Gal6S(b1-4)[Fuc(a1-3)]GlcNAc
Procedure, shortened: as §1

[38] = molecular target: Neu5Ac(a2-3)GalNAc
Procedure, shortened: as §1

B1: Pbx2CASH domain (Cryptococcus neoformans) (protein)
chain: GIPGPNRLYRLSGPIIFTAADQEIATYGYPTGSERAVLRVEGRNTATAIQGDCRRCARVSVKNLVVDGNRKKLGRMRDFQLATGLVVLGGNEGQSIQNSWIKNPRGFTAIHIREGDKLQCSGARVEKNEIGPVGEEYDPEKDGDDPEMSPLGRPLADGVSIACRDSFIRDNTFRDNTDAAIVVYCSPGTLIHA
- glycan array binding signal (z-score) [1]: -0.512
- glycan array binding signal (z-score) [2]: 0.907
- glycan array binding signal (z-score) [3]: 0.795
- glycan array binding signal (z-score) [4]: -0.344
- glycan array binding signal (z-score) [5]: -0.448
- glycan array binding signal (z-score) [6]: 0.094
- glycan array binding signal (z-score) [7]: 0.012
- glycan array binding signal (z-score) [8]: -0.173
- glycan array binding signal (z-score) [9]: -0.2
- glycan array binding signal (z-score) [10]: 0.05
- glycan array binding signal (z-score) [11]: 0.578
- glycan array binding signal (z-score) [12]: -0.059
- glycan array binding signal (z-score) [13]: -0.68
- glycan array binding signal (z-score) [14]: 0.281
- glycan array binding signal (z-score) [15]: -0.341
- glycan array binding signal (z-score) [16]: 0.561
- glycan array binding signal (z-score) [17]: -0.534
- glycan array binding signal (z-score) [18]: 0.079
- glycan array binding signal (z-score) [19]: 1.4
- glycan array binding signal (z-score) [20]: -0.714
- glycan array binding signal (z-score) [21]: -0.563
- glycan array binding signal (z-score) [22]: -0.817
- glycan array binding signal (z-score) [23]: -0.514
- glycan array binding signal (z-score) [24]: -0.669
- glycan array binding signal (z-score) [25]: -0.346
- glycan array binding signal (z-score) [26]: -0.48
- glycan array binding signal (z-score) [27]: -0.636
- glycan array binding signal (z-score) [28]: -0.171
- glycan array binding signal (z-score) [29]: -0.502
- glycan array binding signal (z-score) [30]: 0.378
- glycan array binding signal (z-score) [31]: -0.779
- glycan array binding signal (z-score) [32]: 1.32
- glycan array binding signal (z-score) [33]: 0.909
- glycan array binding signal (z-score) [34]: 1.01
- glycan array binding signal (z-score) [35]: -0.739
- glycan array binding signal (z-score) [36]: 0.099
- glycan array binding signal (z-score) [37]: -0.748
- glycan array binding signal (z-score) [38]: -0.765
